Assay results taken from patent US20020004458A1, “Methods for inducing production of isoflavone levels in plants using nuclear receptor ligands” (priority 2000, published 2002).
At least one read-out could not be matched to a standard name with certainty.

Test system: soybean cotyledons (cultivar Williams)
Experiment: Soybean cut cotyledon assay: potentiation of glyceollin (phytoalexin) elicitation by glucan elicitor
Assay type: in vivo
Conditions: genistein applied as smaller doses on an hourly basis for 8 hours, before glucan elicitor and 10 uM orthovanadate
Description: The cut cotyledon assay is used to investigate both the ability of the nuclear receptor ligand to activate basal elicitation competency in plants, and to evaluate the ability of a second compound such as the glucan defense elicitor from the fungal pathogen Phytophthora sojae to enhance glyceollin elicitation competency in plants in which the isoflavone pools were “loaded” by the action of the ligand. The level of isoflavones in the cotyledon tissues are measured after the addition of different nuclear receptor ligands to determine the effectiveness of each in inducing the basal production of isoflavones in cotyledon tissues. […] Thus, the ability of the ligand to enhance glyceollin elicitation competency by “loading” the isoflavone pools can also be measured.
Cotyledons from 7-8 day old soybean seedlings are removed from the plant and cut on the lower surface to expose subepidermal tissues. […] Tissues are analyzed by HPLC as noted below. […]
High performance liquid chromatography (HPLC) is the . method of choice for determining the levels of isoflavone defense compounds in soybean. With a single HPLC analysis, one gets a complete and quantitative profile of up to 50 or more aromatic compounds, including all the isoflavones and their conjugates and the phytoalexins, including glyceollin. […]

Which “Percent increase in glyceollin elicitation compared to a glucan elicitor control” value does the source give for `O=c1c(-c2ccc(O)cc2)coc2cc(O)cc(O)c12` [Genistein, genistein] here?
Its value is 231%.
